# Test results: the supplement of paper PMC3334620
# The full ranking holds about 33,000 sequences; the median of “E-score (-0.5 to 0.5)” is about -0.015, and the highest 2% start at about 0.3. The list shows a part of the results.
# Molecular target: T1, Abf1 (UniProt P14164)
# T1 sequence: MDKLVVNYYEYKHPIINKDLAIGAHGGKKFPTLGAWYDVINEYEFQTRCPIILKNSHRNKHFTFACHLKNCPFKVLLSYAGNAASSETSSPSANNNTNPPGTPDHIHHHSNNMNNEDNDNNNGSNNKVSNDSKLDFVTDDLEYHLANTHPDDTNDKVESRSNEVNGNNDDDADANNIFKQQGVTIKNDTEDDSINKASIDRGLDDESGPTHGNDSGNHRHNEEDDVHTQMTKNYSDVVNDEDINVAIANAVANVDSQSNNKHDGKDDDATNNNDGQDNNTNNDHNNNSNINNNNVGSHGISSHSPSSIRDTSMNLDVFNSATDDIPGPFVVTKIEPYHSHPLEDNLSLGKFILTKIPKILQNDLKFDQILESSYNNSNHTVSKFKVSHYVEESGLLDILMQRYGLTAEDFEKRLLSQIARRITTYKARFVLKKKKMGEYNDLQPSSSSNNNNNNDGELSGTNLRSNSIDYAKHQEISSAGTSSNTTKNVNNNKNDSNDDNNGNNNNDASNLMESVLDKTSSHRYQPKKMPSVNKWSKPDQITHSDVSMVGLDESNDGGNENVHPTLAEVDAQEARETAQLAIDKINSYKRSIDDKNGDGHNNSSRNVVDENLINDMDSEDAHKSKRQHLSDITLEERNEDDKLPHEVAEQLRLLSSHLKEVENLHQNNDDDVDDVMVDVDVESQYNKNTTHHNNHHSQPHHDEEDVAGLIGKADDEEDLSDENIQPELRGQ
# Experiment: PBM E-score (8-mer binding enrichment) (E-score (-0.5 to 0.5)); higher = stronger / more preferred TF binding
# Settings: protein concentration: 200 nM; construct: GST-full length
# Method in brief: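 Yeast transcription factors carrying a GST tag, as full-length proteins or DNA-binding domains, were produced by PURExpress in vitro transcription/translation. About 100-200 nM protein was applied to universal all-10-mer Agilent arrays, double-stranded by primer extension on fresh or once-stripped slides. Bound protein was detected with fluorescent anti-GST, and scans were normalised with masliner. The Universal PBM Analysis Suite gave each ungapped eight-base word, pooled with its reverse complement, an E-score, a modified Wilcoxon-Mann-Whitney statistic.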
row,Sequence,PBM E-score
1,ATAGCTGA,-0.118
2,CATGTTAC,0.146
3,GTAGCAAA,0.259
4,CAGTTGCA,0.0689
5,ATCGGCAT,0.0011
6,CACTCTTC,-0.0643
7,CAGCCCCG,-0.218
8,CCATAGCC,-0.212
9,CCGGCCGA,-0.103
10,TAGCGTCA,-0.0771
11,CACGCAGG,0.00487
12,CGACAGCC,-0.218
13,AAGACATC,-0.0907
14,GTTAATGA,0.179
15,CCGTCTTA,0.156
16,GACTTGAC,-0.131
17,AATGAAGC,0.102
18,CCCTGTCC,-0.278
19,CGCCATTA,-0.131
20,CTGCAAAC,-0.00591
21,CAGCAAGA,0.0125
22,AATCGCTG,0.0947
23,CGAATGTA,-0.0202
24,GCGGCAAA,0.0189
25,AATCCCCC,-0.241

# Random excerpt: 4 records from the list, in no set order.
row,Sequence,PBM E-score
10,TAGCGTCA,-0.0771
4,CAGTTGCA,0.0689
2,CATGTTAC,0.146
20,CTGCAAAC,-0.00591

# Quoted from the listing.
# Value for CGCCATTA under PBM E-score: -0.131
# Value for GACTTGAC under PBM E-score: -0.131
# Value for GTTAATGA under PBM E-score: 0.179
# Value for AATGAAGC under PBM E-score: 0.102
# Value for CCCTGTCC under PBM E-score: -0.278
# Value for CCGTCTTA under PBM E-score: 0.156

# Continued:

row,Sequence,PBM E-score
1,ATGTAATC,0.079
2,TAGGAAAA,0.0282
3,CTCCTAAA,-0.019
4,CAATATTA,0.271
5,ACCGCTTA,-0.0364
6,AAGCTCGG,-0.176
7,AGAGATTG,0.0704
8,AGAGCTGA,-0.212
9,AGGCGGAG,0.039
10,GCGCAGCC,-0.25
11,AGTCGGCA,-0.111
12,ATTGTTCC,0.138
13,AACAAGCG,0.137
14,TACCGAAA,-0.0387
15,TACACAGA,-0.104
16,CCTTACAC,-0.0587
17,AAGAAGCT,0.144
18,ATGCTTAG,0.166
19,GCGTTGCC,-0.111
20,CTTAGCGA,0.0369
21,CAATGTCG,0.239
22,AATGAGTC,-0.0602
23,AGCGCCTG,-0.279
24,GACCATTA,0.169
25,ACTTACAC,-0.0255

row,Sequence,PBM E-score
1,CATAGGGG,-0.215
2,GCCGACCA,-0.136
3,GGACGCCA,-0.173
4,ACAAATGA,-0.0478
5,AGACTACT,-0.073
6,ATCCTAAC,0.117
7,CGAGCCGC,0.052
8,AGGTAAGG,-0.181
9,GGAGCTAA,-0.00847
10,AACATGGT,-0.0248
11,TGAGCTAA,-0.0888
12,AGAGACAA,0.0374
13,GATAGGCA,-0.0766
14,CAAACTCC,-0.0841
15,AGGATTAA,-0.129
16,ATGGTCAG,0.0274
17,GAACTGGA,0.0236
18,TATGAAAA,0.189
19,CGCGTGAA,0.126
20,AAACCCCC,-0.295
21,AGACTTTC,-0.0575
22,CTATCTCA,0.147
23,ACATAATC,0.205
24,CAAGCTTG,-0.279
25,ATGCCCTG,-0.068

row,Sequence,PBM E-score
1,AGAGGAAT,-0.243
2,GATGCGTA,0.0677
3,CAGTTCTC,-0.0877
4,ACCTTCTG,-0.0995
5,AGAGTATA,0.13
6,GAGTTCCC,-0.169
7,ATGAGCCG,0.0652
8,AATACGGG,0.202
9,CGCCCGTC,0.102
10,ACAGCGCC,-0.0983
11,AAGACCTA,-0.0124
12,ACAGGTCA,-0.0348
13,CTCGGGTA,-0.171
14,GTAAGGTA,0.092
15,GCGCCGCC,-0.0591
16,ATTCTACG,0.22
17,GTGTACTA,0.165
18,GTCGGAAA,0.146
19,GCTGTCGA,-0.252
20,CACTTACA,0.0868
21,CCCTATCC,-0.23
22,AAAGAAAT,0.153
23,GGGGCTCA,-0.262
24,AAAAAGCG,-0.125
25,ACCGACAA,0.115

row,Sequence,PBM E-score
1,CGGGACCA,-0.317
2,AATTTCAT,0.134
3,CATTTGAG,0.0534
4,CACTGCTG,-0.189
5,ATTCCCCG,-0.132
6,AGTAGATC,0.0402
7,CTGAGTGA,0.124
8,AAGTCCCA,-0.207
9,CAACAGTA,0.0414
10,AATATTCA,-0.0685
11,GTTTTCGA,0.193
12,AAAGTTCC,-0.091
13,CATTGGTC,-0.0867
14,CACAAATC,0.0151
15,AACGAAAG,0.0958
16,GGGGTGGA,-0.3
17,AGTTTATG,-0.0326
18,TCATGAAA,0.00026
19,GAGCCGGC,-0.186
20,CGTGAGCC,0.116
21,CAGTTCGG,0.0374
22,ATGTGTCG,0.0704
23,CACCTCTC,-0.196
24,CTAAGATA,0.0158
25,ATCAATTA,0.167

row,Sequence,PBM E-score
1,ACTTTCCG,0.0539
2,AGCAATAC,0.0761
3,TGTGTGAA,-0.234
4,AGGTGGCG,-0.18
5,ACCTTGGG,-0.0211
6,AATGTAGT,0.0994
7,ACTTGAGA,0.00102
8,TCTACAAA,0.0249
9,AACATGTA,0.0593
10,AATCTTAT,0.0466
11,ATTAAACC,0.115
12,ATTCTTGG,-0.0422
13,GGACTTGA,0.0954
14,CGGACGAA,0.35
15,ACGGGCCC,-0.0767
16,GGCCCACC,-0.235
17,AGACCCCT,-0.345
18,ATCAATGA,0.215
19,GAGGGGAA,-0.129
20,CGATTCTC,-0.026
21,ACGTACTA,0.188
22,GCGCTCCA,-0.174
23,CCTACTCC,-0.157
24,GACCCGCA,-0.0925
25,CTAGTAAC,0.102

row,Sequence,PBM E-score
1,GACAATAA,0.133
2,CGACACTC,0.0104
3,ATCCTCCG,0.0496
4,ATCGTCGC,0.362
5,CAGCGCGG,-0.0817
6,GAAGGTCA,0.114
7,CCGTTCAC,0.166
8,CCTACGAA,0.253
9,ATTGATGG,-0.0326
10,CGACGGAG,0.167
11,CACCGGTG,-0.0266
12,CTTGTGTA,0.0304
13,CCGAAAGA,-0.124
14,CGCATCGC,0.0612
15,GAATCTCC,-0.171
16,CCCTTCTC,-0.326
17,ACCTCCTC,-0.0917
18,CTGGCTCA,-0.0243
19,CGTGGGAC,0.133
20,TCGAACAA,0.177
21,AATATAGG,0.175
22,GAATTGAC,0.051
